Assay results as given in PubChem BioAssay AID1347423 (Functional Genomics Laboratory (NCATS/FGL), 2020).
In all, about 52,000 sequences went through this assay and about 210 (0.4%) were called active.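 How the source made its calls: active means gene whose silencing raises cell survival under the drug, median off-target-corrected z-score across its silencing RNAs 2 or more; inactive means the rest.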 Some of the results follow.

Experiment: Resistance to Poly (ADP-Ribose) Polymerase inhibitor: Gene Identification via Genome-wide siRNA Screen
Conditions: mouse BRCA2 R2336H ES cells, olaparib, CellTiter-Glo viability; active compounds read high
How it was run: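 Genome-wide siRNA screen (3 siRNAs/gene, 20 nM) in mouse ES cells carrying hypomorphic BRCA2 R2336H; olaparib 500 nM added 48 h post-transfection, CellTiter-Glo viability 72 h later. Normalized to plate-median negative control; MAD z-scores, gene median, seed-adjusted.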

Sequence | z-score
GGGAACUCCUUAUGAAUGGTT against Stau2 | inactive: 0.0159
GGUCUCUUGGUGAUUUCCATT against Phyhipl | inactive: 1.26
GCCAGAGUACCACAUUAGUTT against Pcdhga4 | inactive: 0.264
GCAAACAAAACAAGUGAGCTT against D630003K02Rik | inactive: 1.69
GGACCAUAGACAGAGAUUATT against Gprk5 | inactive: 0.162
CCAGUGAUAACUCUCUUGUTT against A830039N20Rik | inactive: -0.905
CCGAAAAUGGUAAAUAACUTT against Rnf17 | inactive: -0.717
GGUGCUUGUUUAAAUGGUUTT against Slc19a1 | inactive: 0.329
GCACAGUACUAUCUCGGCATT against Ttc4 | inactive: 0.293
GGGUGGGAGACGAAGAUAATT against Usp17 | inactive: -1.53
CCAAGGACACUAUACAAAUTT against Fank1 | inactive: -0.0621
CCAAGAAAGACCGUGUGAATT against Hdh | inactive: -2.21
GGCAGUUCUUUGUAUUAAATT against Dhcr7 | inactive: 0.863
GGAGCUGUUUGACAGUUUUTT against Nin | inactive: -0.38
GGAUCACUUUGACCACAACTT against 1700093E07Rik | inactive: 0.14
GGAACAGGACUUUUGAUAATT against 2700050F09Rik | active: 1.03
GGAAAAGAAACACAUCUGGTT against Col2a1 | inactive: 1.6
CCUGGCAUUUGGAGCAUUCTT against Olfr1154 | inactive: -0.497
GCAUUACAAAUUGUCUACATT against Ugdh | inactive: -0.304
GGAUGAGCAGAGCAUCUGUTT against BC050188 | inactive: 1.3
CGCAGUGAUUAUGACCUCCTT against 1700023E05Rik | inactive: 0.865
GGAAGGAAAACCUUUCAACTT against Cyp2j6 | inactive: -0.712
GGCUCAGAAUUGAUCCUAUTT against Mjd | inactive: 0.565
GGCGGAAUCACAUCACUUCTT against A030007L22 | inactive: 0.322
GCGAGAUGCGUUCAUGGACTT against P140 | inactive: 0.434
GGUCUACUCUUCAUAUCGCTT against Rab3d | inactive: 1.18

Fetched one by one from the list above (two):
Sequence | z-score
CCAAGGACACUAUACAAAUTT against Fank1 | inactive: -0.0621
GCCAGAGUACCACAUUAGUTT against Pcdhga4 | inactive: 0.264

The list goes on:

Sequence | z-score
GGCAUGAGCGAGUUAAACCTT against Usp53 | inactive: 1.14
GCAGAUGAUACCUGGGCAATT against 1110061O04Rik | inactive: -0.936
CCAGCCAUAUCAACCGUAUTT against Prosapip1 | inactive: -0.0677
GCAUCAUUUUAACACUUCUTT against Tubd1 | inactive: 0.632
CCGCAUACCUCUAAGGUAGTT against 1300013D05Rik | inactive: 0.372
CGAUGUACUGUCUCUUUUGTT against Ywhaz | inactive: 1.53
GGUGAAGGCUGACCGAGAUTT against Rps14 | inactive: -3.23
GCCUAGCAAUGACUGGGAUTT against 0610038F07Rik | inactive: 0.22
CCUCACACUUCACUACUGATT against 2400006N03Rik | inactive: -1.52
CCCUGAUUGAUCGGUCUUGTT against MGC68340 | inactive: -0.893
GGAGGUGAAACCAUAAAAATT against D3Ertd330e | inactive: -2.19
GGCUGAUGAUAAGCUGAUUTT against Letm1 | inactive: 0.443
GGAAUUGUUAAUUGUGGGATT against Stau2 | inactive: 0.207
GGACAUUACCAGCUUGCUGTT against Nkd1 | inactive: 0.24
GGAUGCUCUAGUUCCAUUATT against Aym1 | inactive: 0.251
CCCAGGGAAACCUUAACUCTT against Pstpip1 | inactive: -0.263
GGGAAUUGCUCACCUCCAUTT against Klre1 | inactive: -0.871
GGACAUCCUCUUACAGUGGTT against 1810010M01Rik | inactive: -0.808
CCCACUUUGACACGACACATT against Sertad1 | inactive: -0.769
GGAACAGAAAGCUAUGGAUTT against Surf6 | inactive: -0.706
GGUCUACGACCGAUGUUCUTT against 9530003J23Rik | inactive: -1.1
GGCAUCUCCAAGAUGUUUCTT against 4931414L13Rik | inactive: 0.706
GCAAGACCGAAGUCACGGATT against Krt1-19 | inactive: 0.0699
CCAGGAGGAUACAAUCCCUTT against Rgs3 | inactive: -0.508
GUCGCAUCUCCAAAAAUGGTT against Olfr340 | inactive: -1.44
GGACCAGUGUCUUAUUAAUTT against Osbpl8 | inactive: 0.0755

Individual results from above.
GGAUGCUCUAGUUCCAUUATT against Aym1 – z-score: inactive: 0.251
GGACCAGUGUCUUAUUAAUTT against Osbpl8 – z-score: inactive: 0.0755
GGACAUCCUCUUACAGUGGTT against 1810010M01Rik – z-score: inactive: -0.808
GGCUGAUGAUAAGCUGAUUTT against Letm1 – z-score: inactive: 0.443
CCUCACACUUCACUACUGATT against 2400006N03Rik – z-score: inactive: -1.52

Next entries follow:

Sequence | z-score
CCCACCAAAUAAUUGGAAUTT against E130113K22Rik | inactive: 0.254
GCGUGCACACCUUUGAACUTT against 4930563M21Rik | inactive: 0.272
GGAGAGAAGAAAGAAAAAGTT against Gps2 | inactive: 0.239
GGUUAUGAGAAUCUAAGAUTT against Ypel5 | inactive: -0.228
GGAAGAAGGCAGAAGAGUUTT against Ube2l6 | inactive: -0.483
GCAAGUCCUCUACCUUCUCTT against V1rh10 | inactive: -0.658
GGACUGAAGCAGUAUCAAGTT against Eaf2 | inactive: -0.122
GCAGUGCAGAUCGUUAUUGTT against Stx7 | inactive: 1.01
CCCUGACCUUCAGAUUGUGTT against Olfr788 | inactive: 0.116
GCUAGAAAUAGCCUUAGGUTT against B230106I24Rik | inactive: 0.435
GGUCAGAAGAGUUUGCUAATT against 4933405A16Rik | inactive: 1.31
GCCUUGAAGUUCAAAGGAATT against 1700021I09Rik | inactive: 0.404
GGUUUUAUUGCCUAAAAAGTT against Ankfy1 | inactive: 1.08
CGAUGAGCCUUUUAAUUGUTT against 9030612M13Rik | inactive: 1.49
GGUCGACCUAUUGGUAUUCTT against Oas1h | inactive: -0.564
CGAAACUACCUUCUCAAGCTT against Jmjd1b | inactive: 0.636
GCAAAUAAUGACGUGGCUATT against 4932432N11Rik | inactive: 0.735
GGACUUUGUACAUUGUUUUTT against Actb | inactive: 1.63
CGGUCUGUGUAUGUUAAGATT against Upp2 | inactive: 0.729
GGCAGUUCAUGUUUAAAGATT against Fgfr1op2 | inactive: 0.146
GGGAUGAAUCCUAUUAGUATT against Stau1 | inactive: -0.158
GCAAGUCCUAGUGUCCUGATT against 5830445C04Rik | inactive: -1.66
GGUAUGCUAUGAUCUUAACTT against Olfr561 | inactive: 1.21
GCUCCAACACGAGAAGAAATT against Zfp598 | inactive: -0.685
GUAGUGAAAGCUUUUGGGUTT against V1re2 | inactive: 0.0897
CCGGUUUCGAAAGAGAACUTT against Irs1 | inactive: 1.15

Sequence | z-score
GGGAUAAAGAUGAAGAACUTT against 2010200O16Rik | inactive: -0.869
GGAAGGAGGACAGAGGAAUTT against Tmem19 | inactive: 1.22
GGUGAGCACUAAAUGCAGATT against Cldn16 | inactive: 0.00946
GGAGUAGCUGUACUCAACATT against Olfr790 | inactive: -3
GGAAUGAGAGAACUUGAUATT against 2610027O18Rik | inactive: -0.669
GCAGCCUCAACAACAACCCTT against 3732413I11Rik | inactive: -0.44
GGAAAUAUGCGAAAGCUGATT against Seh1l | inactive: -2.34
GGACUUUGAAAAGAGAAUUTT against Polb | inactive: -0.703
GAAAGUUUACGGGAAAUCUTT against Klf13 | inactive: 1.09
GGAAGUUAGUUUCGUUUUATT against 2610304G08Rik | inactive: -0.284
CCCAAGGAGUACAAUAAAATT against 4930432H15Rik | inactive: -0.0751
CAUUCGUUGAAGAAAGUGATT against MGI:2684414 | inactive: -0.451
GGCUGAUUUUGAAAAGCAATT against Rdh5 | inactive: 0.92
GCAUCACGGAUUCGAAUUGTT against Dgkz | inactive: 0.883
GGUCCAUUAGCUAAAUCUUTT against C130067A03Rik | inactive: 0.757
GGUAUUCUAUAAGCUCCUUTT against 6030446I19Rik | inactive: -0.635
CCCAAUAAAACUUCCGGGATT against BC021608 | inactive: 0.531
GCAAUAGGAAGACCACUUATT against 5930416I19Rik | inactive: -1.93
GCUGAACUAUCCCUUAGUGTT against E430018M08Rik | inactive: -0.0179
GCCUGGUUACAGCAUUAACTT against BC057371 | inactive: 0.317
GGCAUCCUUGACAUAACCUTT against Olfr586 | inactive: -0.596
CGAACAGAAACAGUUAUUATT against Gbp2 | inactive: 0.769
GUAUCCUUUUUAUAGCCUATT against V1rb4 | inactive: 0.24
GCUAUGUGGCCAUAGAUUATT against Hemk1 | inactive: 1.85
GGCCUUUGAUGACAUGUACTT against U46068 | inactive: -0.463
